## Assay results

The results are deposited in PubChem (AID543; NCATS, 2006).

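Rat hepatoma H-4-II-E cells exposed to compounds for 40 hours, with viability judged by cellular ATP measured through a luciferase light signal. Each compound was titrated from about 0.59 nM up to roughly 92 µM. The value is the fitted AC50 potency for the drop in ATP; a lower number means a more potent cytotoxic effect. Calls come from curve class, fit quality and efficacy: good-fit curves with adequate effect are active, flat curves inactive, and everything else inconclusive.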

Values are in µM. Every entry below has the call inconclusive. Only part of the assay is shown, chiefly results filed as inconclusive. Potencies fitted to partial, single-point or poorly fitting curves are rough. An entry listed twice with the same setting is a separate test.

compound: O=c1c(-c2ccc(O)cc2)coc2cc(O)ccc12
potency (µM): 50.12
curve: falling, partial curve

compound: O=C1c2ccccc2C(=O)C1(O)O
potency (µM): 39.81
curve: falling, partial curve

compound: O=CCCCC=O
potency (µM): 63.1
curve: falling, partial curve

compound: c1ccc2c(c1)-c1cccc3c1c-2cc1ccccc13
potency (µM): 50.12
curve: falling, partial curve

compound: [O]=[Cr](=[O])([OH])[O][Cr](=[O])(=[O])[OH]
potency (µM): 15.85
curve: falling, partial curve

compound: C[C@]12CCC(=O)C=C1CC[C@@H]1[C@@H]2CC[C@@]2(C)[C@H]1CC[C@]2(C)O
potency (µM): 39.81
curve: falling, partial curve

compound: C[C@]12C/C(=C/O)C(=O)C[C@@H]1CC[C@@H]1[C@@H]2CC[C@@]2(C)[C@H]1CC[C@]2(C)O
potency (µM): 50.12
curve: falling, partial curve

compound: S=C(NC1CCCCC1)NC1CCCCC1
potency (µM): 50.12
curve: falling, partial curve

compound: Nc1ccc(N=Nc2ccccc2)c(N)n1
potency (µM): 39.81
curve: falling, partial curve

compound: Nc1ccccc1N
potency (µM): 39.81
curve: falling, partial curve

compound: Nc1ccc(Cc2ccc(N)c(Cl)c2)cc1Cl
potency (µM): 50.12
curve: falling, partial curve

compound: BrCC(Br)(Br)Br
potency (µM): 39.81
curve: falling, partial curve

compound: Cc1ccc2c(c1N)C(=O)c1ccccc1C2=O
potency (µM): 50.12
curve: falling, partial curve

compound: N=C(N)c1ccc(OCCCCCOc2ccc(C(=N)N)cc2)cc1
potency (µM): 39.81
curve: falling, partial curve

compound: C[C@]12C[C@H](O)[C@H]3[C@@H](CCC4=CC(=O)CC[C@@]43C)[C@@H]1CC[C@@H]2C(=O)CO
potency (µM): 50.12
curve: falling, partial curve

compound: Oc1cc2c(cc1O)[C@H]1c3ccc(O)c(O)c3OC[C@@]1(O)C2
potency (µM): 39.81
curve: falling, partial curve

compound: CC(C)(O)C(=O)Nc1ccc([N+](=O)[O-])c(C(F)(F)F)c1
potency (µM): 39.81
curve: falling, partial curve

compound: O=c1c(O)c(-c2ccc(O)cc2)oc2cc(O)cc(O)c12
potency (µM): 50.12
curve: falling, partial curve

compound: Nc1ccc2c(c1)C(=O)c1ccccc1C2=O
potency (µM): 39.81
curve: falling, partial curve

compound: CN(C)c1ccc(N=Nc2ccccc2)cc1
potency (µM): 39.81
curve: falling, partial curve

compound: O=C1OC2(c3cc(Br)c(O)c(Br)c3Oc3c2cc(Br)c(O)c3Br)c2c(Cl)c(Cl)c(Cl)c(Cl)c21
potency (µM): 39.81
curve: falling, partial curve

compound: COC1=CC(=O)O[C@@H](/C=C/c2ccc3c(c2)OCO3)C1
potency (µM): 31.62
curve: falling, partial curve

compound: Oc1ccc(Cl)cc1Cc1cc(Cl)ccc1O
potency (µM): 79.43
curve: falling, single point

compound: O=C(Nc1ccccc1)Nc1ccccc1
potency (µM): 39.81
curve: falling, partial curve

compound: C[C@]12CCC(=O)C=C1CC[C@@H]1[C@@H]2CC[C@]2(C)C(=O)CC[C@@H]12
potency (µM): 50.12
curve: falling, partial curve

compound: CC(=O)[C@H]1CC[C@H]2[C@@H]3CCC4=CC(=O)CC[C@]4(C)[C@H]3CC[C@]12C
potency (µM): 39.81
curve: falling, partial curve

compound: c1ccc(Nc2ccc3ccccc3c2)cc1
potency (µM): 39.81
curve: falling, partial curve

compound: NC(=S)Nc1ccccc1
potency (µM): 0.1585
curve: falling, full curve, poor fit

compound: Cc1cc2nc(N)sc2cc1C
potency (µM): 39.81
curve: falling, partial curve

compound: O=[N+]([O-])c1ccc(O)c([N+](=O)[O-])c1
potency (µM): 39.81
curve: falling, partial curve

compound: CN(C)c1ccc(Cc2ccc(N(C)C)cc2)cc1
potency (µM): 50.12
curve: falling, single point

compound: COc1ccc(N=[N+]([O-])c2ccc(OC)cc2)cc1
potency (µM): 39.81
curve: falling, partial curve

compound: O.O.O.O.O.O.O.O=S(=O)([O-])[O-].[Co+2]
potency (µM): 39.81
curve: falling, partial curve

compound: BrCC(Br)C1CCC(Br)C(Br)C1 (centres undefined)
potency (µM): 50.12
curve: falling, partial curve

compound: Nc1c(Cl)cc([N+](=O)[O-])cc1Cl
potency (µM): 50.12
curve: falling, partial curve

compound: O=C(O)c1cc(O)c(O)c(O)c1
potency (µM): 63.1
curve: falling, single point

compound: COC(=O)C1=C(C)NC(C)=C(C(=O)OC)C1c1ccccc1[N+](=O)[O-]
potency (µM): 39.81
curve: falling, partial curve

compound: O=c1cc(-c2ccc(O)cc2)oc2cc(O)cc(O)c12
potency (µM): 50.12
curve: falling, partial curve

compound: [O]=[Cr](=[O])([OH])[O][Cr](=[O])(=[O])[OH]
potency (µM): 31.62
curve: falling, partial curve

Some entries from above, unchanged:

| compound | potency (µM) | curve |
|---|---|---|
| `Cc1cc2nc(N)sc2cc1C` | 39.81 | falling, partial curve |
| `c1ccc2c(c1)-c1cccc3c1c-2cc1ccccc13` | 50.12 | falling, partial curve |
| `COc1ccc(N=[N+]([O-])c2ccc(OC)cc2)cc1` | 39.81 | falling, partial curve |